Binding data for one molecule are collected here from PMC3856013.

The chains behind the UniProt entries cited, without tags or fusion partners. Residues count along the entry.
UniProt P04114, residues 28-4563: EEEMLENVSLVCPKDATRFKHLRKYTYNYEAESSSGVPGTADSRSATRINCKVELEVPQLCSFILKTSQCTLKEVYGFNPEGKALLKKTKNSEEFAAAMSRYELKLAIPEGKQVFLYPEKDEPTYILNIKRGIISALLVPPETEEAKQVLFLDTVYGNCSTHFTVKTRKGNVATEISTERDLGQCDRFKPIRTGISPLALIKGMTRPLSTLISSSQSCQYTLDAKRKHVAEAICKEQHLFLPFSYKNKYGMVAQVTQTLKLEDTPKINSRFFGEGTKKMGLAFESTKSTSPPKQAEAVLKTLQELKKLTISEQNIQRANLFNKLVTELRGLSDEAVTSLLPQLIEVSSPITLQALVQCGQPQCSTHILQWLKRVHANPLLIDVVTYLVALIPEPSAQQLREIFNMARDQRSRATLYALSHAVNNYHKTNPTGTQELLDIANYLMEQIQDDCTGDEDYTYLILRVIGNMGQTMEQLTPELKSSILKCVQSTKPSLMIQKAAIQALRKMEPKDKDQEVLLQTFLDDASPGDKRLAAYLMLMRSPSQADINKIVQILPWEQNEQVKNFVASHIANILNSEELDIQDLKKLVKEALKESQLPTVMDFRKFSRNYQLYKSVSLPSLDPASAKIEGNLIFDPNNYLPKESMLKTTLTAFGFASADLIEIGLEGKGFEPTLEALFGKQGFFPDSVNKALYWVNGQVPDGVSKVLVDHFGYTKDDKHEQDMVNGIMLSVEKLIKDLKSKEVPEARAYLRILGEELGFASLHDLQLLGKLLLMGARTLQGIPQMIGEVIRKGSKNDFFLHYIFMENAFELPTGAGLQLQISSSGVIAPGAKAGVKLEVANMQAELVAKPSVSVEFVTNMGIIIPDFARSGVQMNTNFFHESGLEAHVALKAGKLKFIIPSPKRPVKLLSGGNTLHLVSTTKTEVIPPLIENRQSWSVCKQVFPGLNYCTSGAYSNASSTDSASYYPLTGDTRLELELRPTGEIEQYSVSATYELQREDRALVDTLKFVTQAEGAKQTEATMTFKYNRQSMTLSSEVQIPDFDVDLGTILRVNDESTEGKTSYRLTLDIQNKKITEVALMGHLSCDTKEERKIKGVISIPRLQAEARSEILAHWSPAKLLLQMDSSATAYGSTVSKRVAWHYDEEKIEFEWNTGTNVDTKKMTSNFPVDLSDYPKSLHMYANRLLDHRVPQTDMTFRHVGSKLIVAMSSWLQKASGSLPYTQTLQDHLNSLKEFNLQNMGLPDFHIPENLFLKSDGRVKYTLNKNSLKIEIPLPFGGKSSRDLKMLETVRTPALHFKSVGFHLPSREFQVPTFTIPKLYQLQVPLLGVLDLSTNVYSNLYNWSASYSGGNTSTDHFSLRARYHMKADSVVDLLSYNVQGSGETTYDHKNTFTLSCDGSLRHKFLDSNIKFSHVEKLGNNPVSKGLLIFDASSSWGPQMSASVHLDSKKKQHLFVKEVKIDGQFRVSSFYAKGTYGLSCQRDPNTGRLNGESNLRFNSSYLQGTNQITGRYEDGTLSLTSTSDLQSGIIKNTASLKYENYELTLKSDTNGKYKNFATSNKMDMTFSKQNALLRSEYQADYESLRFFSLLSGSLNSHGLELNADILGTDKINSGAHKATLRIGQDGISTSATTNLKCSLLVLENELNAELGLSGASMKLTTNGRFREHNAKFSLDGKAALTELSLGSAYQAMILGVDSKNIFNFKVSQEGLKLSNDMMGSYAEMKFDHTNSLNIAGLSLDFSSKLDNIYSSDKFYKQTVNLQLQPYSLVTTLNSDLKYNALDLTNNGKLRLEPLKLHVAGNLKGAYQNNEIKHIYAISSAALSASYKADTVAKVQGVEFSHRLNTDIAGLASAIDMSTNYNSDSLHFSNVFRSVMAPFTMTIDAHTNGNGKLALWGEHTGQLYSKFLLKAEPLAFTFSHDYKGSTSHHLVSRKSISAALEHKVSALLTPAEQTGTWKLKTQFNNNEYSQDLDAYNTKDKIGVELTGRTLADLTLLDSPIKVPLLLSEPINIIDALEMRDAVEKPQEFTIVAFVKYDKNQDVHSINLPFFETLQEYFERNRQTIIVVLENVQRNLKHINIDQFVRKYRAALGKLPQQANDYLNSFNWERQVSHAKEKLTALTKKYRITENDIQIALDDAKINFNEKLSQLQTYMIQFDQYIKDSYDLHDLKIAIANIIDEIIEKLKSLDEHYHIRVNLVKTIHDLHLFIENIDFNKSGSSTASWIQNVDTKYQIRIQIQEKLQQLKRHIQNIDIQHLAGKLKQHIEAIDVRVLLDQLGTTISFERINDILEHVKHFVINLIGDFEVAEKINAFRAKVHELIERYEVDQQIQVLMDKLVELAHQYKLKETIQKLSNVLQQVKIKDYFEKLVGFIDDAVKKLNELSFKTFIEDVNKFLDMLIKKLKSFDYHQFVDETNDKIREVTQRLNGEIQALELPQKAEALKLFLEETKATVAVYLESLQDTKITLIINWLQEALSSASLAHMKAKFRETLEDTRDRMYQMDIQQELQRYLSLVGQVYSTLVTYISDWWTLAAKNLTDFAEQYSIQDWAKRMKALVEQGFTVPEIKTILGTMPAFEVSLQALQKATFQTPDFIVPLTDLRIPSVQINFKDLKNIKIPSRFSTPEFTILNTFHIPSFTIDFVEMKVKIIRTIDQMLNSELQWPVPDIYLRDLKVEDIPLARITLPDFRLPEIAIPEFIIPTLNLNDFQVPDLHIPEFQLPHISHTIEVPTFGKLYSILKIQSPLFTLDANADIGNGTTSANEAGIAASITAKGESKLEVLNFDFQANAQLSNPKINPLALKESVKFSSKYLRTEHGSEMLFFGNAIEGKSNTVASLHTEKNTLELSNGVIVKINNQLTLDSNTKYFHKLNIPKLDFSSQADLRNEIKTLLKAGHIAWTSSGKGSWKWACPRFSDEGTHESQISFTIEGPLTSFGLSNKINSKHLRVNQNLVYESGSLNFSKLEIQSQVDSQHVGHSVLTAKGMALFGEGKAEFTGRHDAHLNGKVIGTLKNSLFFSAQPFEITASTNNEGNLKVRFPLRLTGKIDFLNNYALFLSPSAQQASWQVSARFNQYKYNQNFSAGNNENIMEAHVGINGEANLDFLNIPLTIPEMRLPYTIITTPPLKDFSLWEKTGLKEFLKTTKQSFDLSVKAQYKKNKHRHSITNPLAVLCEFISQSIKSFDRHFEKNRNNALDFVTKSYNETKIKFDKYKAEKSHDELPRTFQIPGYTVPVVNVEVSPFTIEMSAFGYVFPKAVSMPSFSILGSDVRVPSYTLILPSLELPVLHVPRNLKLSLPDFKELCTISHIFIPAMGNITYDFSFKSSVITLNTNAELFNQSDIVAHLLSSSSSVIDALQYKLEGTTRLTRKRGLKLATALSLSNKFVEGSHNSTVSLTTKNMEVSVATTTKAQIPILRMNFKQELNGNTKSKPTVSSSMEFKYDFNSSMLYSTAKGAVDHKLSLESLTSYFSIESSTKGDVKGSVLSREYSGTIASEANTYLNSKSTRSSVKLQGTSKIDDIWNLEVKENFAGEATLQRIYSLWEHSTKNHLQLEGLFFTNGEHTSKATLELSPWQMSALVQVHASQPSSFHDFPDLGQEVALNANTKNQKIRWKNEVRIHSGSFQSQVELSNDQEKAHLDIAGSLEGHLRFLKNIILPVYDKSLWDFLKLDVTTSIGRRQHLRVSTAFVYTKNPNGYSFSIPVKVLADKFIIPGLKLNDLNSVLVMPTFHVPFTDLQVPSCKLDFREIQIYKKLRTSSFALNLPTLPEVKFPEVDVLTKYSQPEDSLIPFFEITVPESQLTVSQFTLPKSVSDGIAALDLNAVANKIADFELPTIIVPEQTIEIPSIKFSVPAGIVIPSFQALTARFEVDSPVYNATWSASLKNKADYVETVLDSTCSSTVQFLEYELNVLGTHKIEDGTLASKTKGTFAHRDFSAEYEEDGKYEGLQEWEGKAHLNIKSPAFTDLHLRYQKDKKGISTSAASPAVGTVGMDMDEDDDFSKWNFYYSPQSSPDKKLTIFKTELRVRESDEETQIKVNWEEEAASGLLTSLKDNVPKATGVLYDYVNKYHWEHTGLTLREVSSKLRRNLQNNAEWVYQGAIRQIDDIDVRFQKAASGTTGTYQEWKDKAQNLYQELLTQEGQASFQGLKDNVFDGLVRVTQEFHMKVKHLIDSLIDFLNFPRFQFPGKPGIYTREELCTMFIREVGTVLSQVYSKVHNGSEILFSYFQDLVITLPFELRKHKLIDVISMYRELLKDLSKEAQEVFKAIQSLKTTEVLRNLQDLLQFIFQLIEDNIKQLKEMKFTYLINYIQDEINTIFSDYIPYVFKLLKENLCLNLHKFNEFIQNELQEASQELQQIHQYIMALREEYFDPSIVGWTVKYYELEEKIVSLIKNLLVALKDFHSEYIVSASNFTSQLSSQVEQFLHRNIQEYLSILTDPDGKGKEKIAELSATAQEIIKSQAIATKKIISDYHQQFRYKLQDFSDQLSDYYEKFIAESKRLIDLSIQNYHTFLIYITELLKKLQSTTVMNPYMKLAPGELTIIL

No constants are given. Whether binding was seen depends on the method and setting. Binding seen in cells or lysates may run through a third protein. Some entries that bind do so weakly or less than the wild type.

In this assay the target is ApoB100 (apolipoprotein B100) (human (endogenous in HepG2)) (UniProt P04114). Description: co-IP; HepG2 cell lysate incubated with anti-GLT8D2 and anti-apoB100 antibodies overnight at 4 °C with Protein-G/A beads; Western blot; rabbit irrelevant IgG as control.

B1: GLT8D2 (glycosyltransferase 8 domain containing 2) (enzyme, UniProt Q9H1C3 1-349)
chain: MALLRKINQVLLFLLIVTLCVILYKKVHKGTVPKNDADDESETPEELEEEIPVVICAAAGRMGATMAAINSIYSNTDANILFYVVGLRNTLTRIRKWIEHSKLREINFKIVEFNPMVLKGKIRPDSSRPELLQPLNFVRFYLPLLIHQHEKVIYLDDDVIVQGDIQELYDTTLALGHAAAFSDDCDLPSAQDINRLVGLQNTYMGYLDYRKKAIKDLGISPSTCSFNPGVIVANMTEWKHQRITKQLEKWMQKNVEENLYSSSLGGGVATSPMLIVFHGKYSTINPLWHIRHLGWNPDARYSEHFLQEAKLLHWNGRHKPWDFPSVHNDLWESWFVPDPAGIFKLNHHS
For B1, the binding result was “binds”.
